For this experiment, the target named is T1, Flag-tagged USP36 (UniProt Q9P275).
T1 sequence: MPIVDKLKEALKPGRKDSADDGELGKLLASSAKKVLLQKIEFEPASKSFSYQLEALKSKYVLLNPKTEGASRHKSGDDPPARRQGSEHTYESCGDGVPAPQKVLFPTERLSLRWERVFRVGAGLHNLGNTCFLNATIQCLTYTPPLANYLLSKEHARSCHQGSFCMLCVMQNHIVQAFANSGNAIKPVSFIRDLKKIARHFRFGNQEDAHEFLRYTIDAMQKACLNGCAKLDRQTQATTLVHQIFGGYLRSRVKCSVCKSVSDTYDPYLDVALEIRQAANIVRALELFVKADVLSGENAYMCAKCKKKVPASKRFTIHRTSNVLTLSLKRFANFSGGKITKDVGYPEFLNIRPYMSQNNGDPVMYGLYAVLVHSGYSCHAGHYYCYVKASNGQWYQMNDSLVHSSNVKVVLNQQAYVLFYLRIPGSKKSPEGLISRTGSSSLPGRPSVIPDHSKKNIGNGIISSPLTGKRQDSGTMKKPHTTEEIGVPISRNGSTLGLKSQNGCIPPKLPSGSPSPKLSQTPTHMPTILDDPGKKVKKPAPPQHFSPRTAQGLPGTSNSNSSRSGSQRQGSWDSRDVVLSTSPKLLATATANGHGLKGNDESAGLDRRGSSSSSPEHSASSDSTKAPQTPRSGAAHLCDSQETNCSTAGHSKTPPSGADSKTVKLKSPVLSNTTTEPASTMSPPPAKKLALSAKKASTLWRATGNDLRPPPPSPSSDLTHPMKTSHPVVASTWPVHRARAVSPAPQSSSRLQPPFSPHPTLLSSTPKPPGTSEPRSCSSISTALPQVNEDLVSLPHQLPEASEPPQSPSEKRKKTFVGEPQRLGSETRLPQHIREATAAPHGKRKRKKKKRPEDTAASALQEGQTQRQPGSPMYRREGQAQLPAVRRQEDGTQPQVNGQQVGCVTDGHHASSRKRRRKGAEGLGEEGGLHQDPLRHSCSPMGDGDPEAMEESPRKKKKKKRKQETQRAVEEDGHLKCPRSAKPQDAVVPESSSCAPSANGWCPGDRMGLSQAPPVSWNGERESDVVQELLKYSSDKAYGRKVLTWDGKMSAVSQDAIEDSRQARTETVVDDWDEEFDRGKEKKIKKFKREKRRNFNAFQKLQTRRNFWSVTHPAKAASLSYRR
Description: co-IP; Co-IP experiments of Supplementary Fig. S4; cells and bait not given.

By UniProt entry, the sequences of proteins in these tests, tags left out.
UniProt Q8IZL8: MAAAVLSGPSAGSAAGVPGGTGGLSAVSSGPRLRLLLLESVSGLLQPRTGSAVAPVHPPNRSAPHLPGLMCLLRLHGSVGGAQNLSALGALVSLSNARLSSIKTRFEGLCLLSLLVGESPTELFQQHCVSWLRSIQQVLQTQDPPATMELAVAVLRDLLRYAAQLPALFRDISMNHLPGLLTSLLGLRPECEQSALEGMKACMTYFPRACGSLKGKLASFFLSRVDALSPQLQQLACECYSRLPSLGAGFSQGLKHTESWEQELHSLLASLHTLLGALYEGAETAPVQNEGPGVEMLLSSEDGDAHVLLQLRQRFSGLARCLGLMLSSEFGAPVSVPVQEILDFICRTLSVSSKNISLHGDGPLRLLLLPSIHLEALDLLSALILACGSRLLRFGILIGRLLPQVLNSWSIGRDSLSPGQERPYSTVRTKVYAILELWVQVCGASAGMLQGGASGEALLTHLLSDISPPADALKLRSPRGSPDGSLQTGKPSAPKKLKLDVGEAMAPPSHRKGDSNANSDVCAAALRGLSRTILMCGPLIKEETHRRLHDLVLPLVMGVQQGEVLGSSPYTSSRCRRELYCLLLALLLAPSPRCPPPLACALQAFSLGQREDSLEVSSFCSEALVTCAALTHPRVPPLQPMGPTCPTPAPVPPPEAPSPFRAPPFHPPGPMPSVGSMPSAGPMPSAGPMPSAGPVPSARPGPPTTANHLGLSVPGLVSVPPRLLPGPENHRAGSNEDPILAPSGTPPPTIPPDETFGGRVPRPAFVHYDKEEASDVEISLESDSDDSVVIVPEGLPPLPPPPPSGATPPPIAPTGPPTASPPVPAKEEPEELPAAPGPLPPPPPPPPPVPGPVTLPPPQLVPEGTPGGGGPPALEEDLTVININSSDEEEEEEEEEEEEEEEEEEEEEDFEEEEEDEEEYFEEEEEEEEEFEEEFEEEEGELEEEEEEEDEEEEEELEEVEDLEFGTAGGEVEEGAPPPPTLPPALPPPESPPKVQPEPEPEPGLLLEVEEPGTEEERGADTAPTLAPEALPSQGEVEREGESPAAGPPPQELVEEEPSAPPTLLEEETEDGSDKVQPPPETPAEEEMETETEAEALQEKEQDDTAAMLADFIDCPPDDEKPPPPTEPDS
UniProt Q9H4L4: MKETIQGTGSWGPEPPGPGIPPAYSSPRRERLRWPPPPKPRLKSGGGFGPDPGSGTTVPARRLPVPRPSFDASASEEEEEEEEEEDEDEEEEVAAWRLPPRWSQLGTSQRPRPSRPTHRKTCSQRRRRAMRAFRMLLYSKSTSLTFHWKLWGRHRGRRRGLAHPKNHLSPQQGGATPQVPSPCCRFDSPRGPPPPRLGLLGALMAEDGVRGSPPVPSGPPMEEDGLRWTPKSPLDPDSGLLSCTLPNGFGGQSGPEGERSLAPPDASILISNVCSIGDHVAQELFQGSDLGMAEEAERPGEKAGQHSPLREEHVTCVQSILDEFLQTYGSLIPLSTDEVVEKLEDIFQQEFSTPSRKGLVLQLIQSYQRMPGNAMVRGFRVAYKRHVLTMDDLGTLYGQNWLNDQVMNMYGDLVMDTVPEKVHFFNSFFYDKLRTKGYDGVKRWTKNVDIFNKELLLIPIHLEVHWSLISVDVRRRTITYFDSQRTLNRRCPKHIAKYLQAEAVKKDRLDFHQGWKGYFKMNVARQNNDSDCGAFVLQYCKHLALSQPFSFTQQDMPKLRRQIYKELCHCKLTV

These are yes or no findings as the source states them, for the method shown. In cells and extracts the contact can be indirect. Some results given as binding are weak or reduced against the parent protein; the word gives no strength. Where a sequence is shown, tags or fusion partners need not be part of it.

Results on two substances are retold here after publication PMC11523043.

In the case of Pelp1 (from UniProt Q8IZL8 1-1130), the binding entry is given as “binds”. The value for “SENP3 (from UniProt Q9H4L4 1-574) (enzyme)” was “binds”.
